Reference: paper doi:10.1101/2025.02.17.637997, “Phosphorylation-State Modulated Binding of HSP70: Structural Insights and Compensatory Protein Engineering” (bioRxiv, 2025)

Test system: CHIP-TPR (21–154)
Test: X-ray crystal structures of CHIP-TPR with HSP70 peptides
Set-up: species or system Hs
Settings: crystal structures 9DYA (EEVD) and 9DYB (pEEVD)

GP[pT]IEEVD [pT-HSP70 peptide, phosphorylated HSP(C)70 peptide]
change of hydrogen bonds on phosphorylation: eliminates a hydrogen bond; also recorded: removes two hydrogen bonds

“Also recorded” adds a separate entry of the source. Square brackets hold non-standard residues; d marks the D form. Ends that are not written are not given here. pT = C[C@@H](OP(=O)(O)O)[C@H](N)C(=O)O
